# In paper doi:10.1101/713677:
# Read-outs that look alike come from different tables or passages of the source. No constants are given. Whether binding was seen depends on the method and setting. For part of these data: Binding seen in cells or lysates may run through a third protein. Some results given as binding are weak or reduced against the parent protein; the word gives no strength. Sequences can lack the tags named with a protein.
# T1: Bacillus subtilis PBP2B (BACTH fusion) (Bacillus subtilis 168) (UniProt Q07868)
# T1 sequence: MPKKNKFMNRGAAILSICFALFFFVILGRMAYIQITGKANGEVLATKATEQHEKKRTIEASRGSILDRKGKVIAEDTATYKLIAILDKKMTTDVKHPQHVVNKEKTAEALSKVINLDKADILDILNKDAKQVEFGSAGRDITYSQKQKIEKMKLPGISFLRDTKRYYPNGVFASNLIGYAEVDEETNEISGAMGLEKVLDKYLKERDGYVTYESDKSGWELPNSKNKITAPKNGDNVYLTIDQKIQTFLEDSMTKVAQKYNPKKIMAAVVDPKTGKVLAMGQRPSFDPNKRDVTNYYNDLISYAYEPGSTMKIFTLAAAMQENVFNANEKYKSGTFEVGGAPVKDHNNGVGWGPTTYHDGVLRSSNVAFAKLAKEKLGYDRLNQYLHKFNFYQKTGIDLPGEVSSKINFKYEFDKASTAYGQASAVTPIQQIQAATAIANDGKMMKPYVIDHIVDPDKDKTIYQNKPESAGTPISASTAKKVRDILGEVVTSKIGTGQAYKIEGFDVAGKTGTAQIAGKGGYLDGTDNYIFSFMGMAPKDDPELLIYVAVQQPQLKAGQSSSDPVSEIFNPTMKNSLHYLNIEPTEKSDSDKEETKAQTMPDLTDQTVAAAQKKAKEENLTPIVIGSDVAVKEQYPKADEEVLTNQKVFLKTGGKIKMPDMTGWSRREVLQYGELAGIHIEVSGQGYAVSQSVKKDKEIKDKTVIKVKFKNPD
# T2: GFP-PBP2B (Bacillus subtilis) (UniProt Q07868)
# T2 sequence: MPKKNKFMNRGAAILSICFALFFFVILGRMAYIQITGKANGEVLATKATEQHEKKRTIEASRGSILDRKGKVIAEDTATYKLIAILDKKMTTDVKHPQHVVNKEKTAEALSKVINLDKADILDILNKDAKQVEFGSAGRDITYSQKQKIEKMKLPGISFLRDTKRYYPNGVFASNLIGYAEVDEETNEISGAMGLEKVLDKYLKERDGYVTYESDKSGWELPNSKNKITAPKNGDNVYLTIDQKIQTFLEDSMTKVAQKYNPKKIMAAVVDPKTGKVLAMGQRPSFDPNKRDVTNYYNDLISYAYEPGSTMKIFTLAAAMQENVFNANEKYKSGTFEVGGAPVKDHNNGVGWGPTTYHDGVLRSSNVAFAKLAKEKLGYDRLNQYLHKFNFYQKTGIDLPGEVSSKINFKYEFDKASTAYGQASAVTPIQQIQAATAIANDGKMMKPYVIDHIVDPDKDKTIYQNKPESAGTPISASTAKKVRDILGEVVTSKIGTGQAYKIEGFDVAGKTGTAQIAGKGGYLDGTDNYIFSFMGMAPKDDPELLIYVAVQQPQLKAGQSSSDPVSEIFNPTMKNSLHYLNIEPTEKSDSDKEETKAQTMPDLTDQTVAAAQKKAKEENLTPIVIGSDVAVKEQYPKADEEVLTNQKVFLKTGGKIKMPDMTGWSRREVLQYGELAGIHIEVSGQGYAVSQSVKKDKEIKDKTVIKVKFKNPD
# Tests used:
# [1] = target: T1, Bacillus subtilis PBP2B (BACTH fusion) (Bacillus subtilis 168); test: two-hybrid
# [2] = target: T1, Bacillus subtilis PBP2B (BACTH fusion) (Bacillus subtilis 168); test: two-hybrid; remark: listed apart in the source
# [3] = target: T2, GFP-PBP2B (Bacillus subtilis); test: co-IP
Binder,binding [1],binding [2],binding [3]
"DivIB-FLAG (protein, UniProt P16655 1-263) MNPGQDREKIVNIEERIPKIKEQRKQKANRRLISFIMLFFIMVLIIVYLQTPISKVSTISVTGNENVSKKEIIDLSDINSGDTEFWSLDKQKTEKKIQQNKLVKKAEISKSLPNKINIAIEEYKAIAYLEKDDVYYEVLENGSVLPNEVTPDDAGPILVNWTNAKKRSQMAKQLDALSNSLKQSISEIYYTPVKMDENRIKLYMNDGYVVTASIKTFADRMKTYPSIISQLSSNKKGIIHLEVATYFEEFGKNDKAAKKEDEN",,,binds
"Bacillus subtilis FtsL (BACTH fusion) (protein, UniProt Q07867 1-117) MSNLAYQPEKQQRHAISPEKKVIVKKRASITLGEKVLLVLFAAAVLSVSLLIVSKAYAAYQTNIEVQKLEEQISSENKQIGDLEKSVADLSKPQRIMDIAKKNGLNLKDKKVKNIQE",binds,binds,

# Results, then the binder that gave them:
binding [1],binding [2],binding [3],Binder
binds,binds,,"Bacillus subtilis DivIB (BACTH fusion) (protein, UniProt P16655 1-263) MNPGQDREKIVNIEERIPKIKEQRKQKANRRLISFIMLFFIMVLIIVYLQTPISKVSTISVTGNENVSKKEIIDLSDINSGDTEFWSLDKQKTEKKIQQNKLVKKAEISKSLPNKINIAIEEYKAIAYLEKDDVYYEVLENGSVLPNEVTPDDAGPILVNWTNAKKRSQMAKQLDALSNSLKQSISEIYYTPVKMDENRIKLYMNDGYVVTASIKTFADRMKTYPSIISQLSSNKKGIIHLEVATYFEEFGKNDKAAKKEDEN"
,no binding,,"Bacillus subtilis DivIC (BACTH fusion) (protein, UniProt P37471 1-125) MNFSRERTITEIQNDYKEQVERQNQLKKRRRKGLYRRLTVFGALVFLTAIVLASSVWSQTSSLSAKEEKKEQLEKELKSLKTKQTDLKEEISKLKDEDYVTELARRDLFMSGDGEIIFNVEKKSK"
